Assay results: ChEMBL document CHEMBL6134860, “Discovery and optimization of a novel carboxamide scaffold with selective antimalarial activity” (Eur J Med Chem, 2025)

Assay: Cytotoxicity against human HepG2 cells measured after 72 hrs by hoechst 33342 staining based imaging assay
Assay type: toxicity, cell-based

Compound	CC50 at 72 h (read-out: CC50) [µM]	CC50 at 72 h (read-out: pCC50 (converted)) [µM]
CN(C(=O)c1cc(-c2ccc(Cl)cc2)ccn1)c1ccc(Cl)cc1	> 10	> 10
[2H]C([2H])([2H])N(C(=O)c1ncc(-c2ccc(Cl)cc2)o1)c1ccc(Cl)cc1	> 10000	> 10
CN(C(=O)c1ncc(-c2ccc(Cl)cc2)o1)c1ccc(Cl)cc1	> 10	> 10
[2H]C([2H])([2H])N(C(=O)c1cc(-c2ccc(Cl)cc2)ccn1)c1ccc(Cl)cc1	> 10000	> 10
